Source: PubChem BioAssay AID1347156 (National Center for Advancing Translational Sciences (NCATS), 2019)
The inconclusive results got no clear call from the source; some entries with a clear call stand among them for comparison. A potency beside an inconclusive call is a rough fit, not a confirmed value. Activity calls are given as the source filed them. The call rests on the fitted dose curve; in most records, active means well fitted cell-killing curve with a large enough effect; inconclusive means small, poorly fitted or top-dose-only effect; inactive means flat fitted curve, though single readings scatter.

Assay: DAPI mCherry counterscreen qHTS for Zika virus inhibitors; further: nearly all actives have a fitted effect of over 55% in size
Conditions: Vero cells, DAPI nuclear count cytotoxicity, imaging 48-72 h, infected with Zika reporter virus, MOI 1; activity change, negative = cell loss: at 32.6 µM (top of the series) unless noted
Summary of the method: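 Imaging read-out after fixation and Hoechst nuclear staining: percent infection from mCherry-positive cells (above 3 SD of negative controls) and nuclear counts. Setup: Vero cells pre-plated overnight, compound added, infected with ZIKV-mCherry (MOI 1), 48-72 hrs, 37 degrees C.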
On the % scale 0 is the no-effect control and ±100 the full control effect; potency means the concentration at half of the fitted maximal effect.

| SMILES | Potency | activity change, negative = cell loss |
| --- | --- | --- |
| Cc1cccc(C)c1NS(=O)(=O)c1ccc(NS(=O)(=O)c2ccc3c(c2)OCCO3)cc1 | inconclusive: 12.6 µM [cytotoxic, partial curve] | – |
| COc1ccc(C(=O)n2c(C)c(Cc3cccc(O[C@@H](C)C(=O)O)c3)c3cc(OC(F)(F)F)ccc32)cc1 | inconclusive: 22.4 µM [cytotoxic, partial curve] | – |
| CC(C)N=c1cc2n(-c3ccc(Cl)cc3)c3ccccc3nc-2cc1Nc1ccc(Cl)cc1 | inconclusive: 8.91 µM [cytotoxic, full curve] | – |
| O=S(=O)(O)c1ccc2c(N=Nc3ccc(S(=O)(=O)O)c4ccccc34)c(O)c(S(=O)(=O)O)cc2c1 | inconclusive: 35.5 µM [cytotoxic, partial curve, poor fit] | – |
| CC(C)c1ccc2c(c1)c(SC(C)(C)C)c(CC(C)(C)C(=O)O)n2Cc1ccc(Cl)cc1 | active: 11.2 µM | – |
| O=C(O)CCc1ccc(-c2ccc(Cl)cc2)n1-c1cccc(C(F)(F)F)c1 | active: 25.1 µM | – |
| CCCCCCc1cc2cc(-c3cn4c(n3)sc3cc(OC)ccc34)c(=O)oc2cc1O | – | inconclusive: -51.1% |
| Nc1c(N=Nc2ccc(-c3ccc(N=Nc4cc(S(=O)(=O)O)c5ccccc5c4N)cc3)cc2)cc(S(=O)(=O)O)c2ccccc12 | inconclusive: 7.08 µM [cytotoxic, full curve, poor fit] | – |
| O=C(O)c1cnn(-c2nc3cc(OC(F)(F)F)c(Cl)cc3[nH]2)c1 | – | inactive: -7.21% |
| O=C(Nc1ccc([N+](=O)[O-])cc1Cl)c1cc(Cl)ccc1O | inconclusive: 2 µM [cytotoxic, full curve, poor fit] | – |
| CC(C)=CCCC1(C)C=Cc2c(O)c3c(c(CC=C(C)C)c2O1)OC12C(=CCCC1C(C)(C)O[C@@]2(C/C=C(\C)C(=O)O)C(=O)O)C3=O (some centres not stated) | active: 15.8 µM | – |
| O=C(O)c1ccccc1Nc1cccc(OCc2ccc3ccccc3n2)c1 | active: 31.6 µM | – |
| O=c1oc2ccccc2cc1-c1nnc(Nc2ccc(Cl)cc2Cl)s1 | – | inactive: -17.8% |
| O=C1NC(=O)/C(=C/c2ccc3c(c2)OC(F)(F)O3)S1 | inconclusive: 25.1 µM [cytotoxic, partial curve] | – |
| COc1cc(-c2ccc(N=Nc3ccc4c(S(=O)(=O)O)cc(S(=O)(=O)O)c(N)c4c3O)c(OC)c2)ccc1N=Nc1ccc2c(S(=O)(=O)O)cc(S(=O)(=O)O)c(N)c2c1O | – | inactive: -13.8% |
| COc1cccc(CNc2ccc(S(=O)(=O)Nc3nc4ccccc4s3)cc2)c1O | inconclusive: 20 µM [cytotoxic, partial curve, poor fit] | – |
| Cc1cc(C)cc(C(=O)N(C)[C@H](Cc2ccc(-c3ccccc3)cc2)C(=O)N[C@@H](Cc2c[nH]c3ccccc23)C(=O)O)c1 | active: 8.91 µM | – |
| N#C/C(=C\c1ccc(-c2cc(Cl)ccc2Cl)o1)C(=O)Nc1ccccc1C(=O)O | inconclusive: 25.1 µM [cytotoxic, partial curve] | – |
| O=C(O)c1cccc(-c2ccc(OC(F)(F)F)cc2)c1 | inconclusive: 22.4 µM [cytotoxic, partial curve, poor fit] | – |

Sorted by molar mass (high to low): some entries from above.

| SMILES | Potency | activity change, negative = cell loss |
| --- | --- | --- |
| Cc1cccc(C)c1NS(=O)(=O)c1ccc(NS(=O)(=O)c2ccc3c(c2)OCCO3)cc1 | inconclusive: 12.6 µM [cytotoxic, partial curve] | – |
| CCCCCCc1cc2cc(-c3cn4c(n3)sc3cc(OC)ccc34)c(=O)oc2cc1O | – | inconclusive: -51.1% |
| O=C(O)c1cnn(-c2nc3cc(OC(F)(F)F)c(Cl)cc3[nH]2)c1 | – | inactive: -7.21% |

The list continues:

| SMILES | Potency | activity change, negative = cell loss |
| --- | --- | --- |
| CC(C)(O)c1ccccc1CC[C@@H](SCC1(CC(=O)O)CC1)c1cccc(/C=C/c2ccc3ccc(Cl)cc3n2)c1 | inconclusive: 39.8 µM [cytotoxic, single point] | – |
| Cc1ccc(Nc2nnc(-c3ccc(C)c(S(=O)(=O)NCc4nc5ccccc5[nH]4)c3)c3ccccc23)cc1 | inconclusive: 17.8 µM [cytotoxic, partial curve, poor fit] | – |
| O=C(NCc1ccccc1Cl)c1ccc2c(O)c(S(=O)(=O)c3ccccc3)c(=O)[nH]c2c1 | – | inactive: -8.67% |
| Cc1oc2c(cc(NS(=O)(=O)c3ccc(F)cc3)c3ccccc32)c1C(=O)OCc1ccccc1 | inconclusive: 4.47 µM [cytotoxic, full curve] | – |
| CC1(C(=O)O)NCCc2cc(O)c(O)cc21 (configuration not stated) | – | inactive: -4.98% |
| COc1cc(Nc2ccc([N+](=O)[O-])cc2C(=O)O)cc2ccccc12 | inconclusive: 25.1 µM [cytotoxic, partial curve] | – |
| O=C(O)c1ccc(C2Nc3ccccc3-c3nnc(SCc4ccc(Cl)cc4)nc3O2)cc1 (configuration not stated) | – | inactive: -17% |
| Oc1cccc(-c2c3nc(c(-c4cccc(O)c4)c4ccc([nH]4)c(-c4cccc(O)c4)c4nc(c(-c5cccc(O)c5)c5ccc2[nH]5)CC4)C=C3)c1 | inconclusive: 17.8 µM [cytotoxic, full curve, poor fit] | – |
| Cc1cc(SCc2sc(-c3ccc(C(F)(F)F)cc3)nc2C)ccc1OCC(=O)O | inconclusive: 25.1 µM [cytotoxic, partial curve] | – |
| O=c1c(O)c(-c2ccc(O)c(O)c2)oc2cc(O)cc(O)c12 | – | inactive: -12.9% |
| O=c1cc(-c2cc(O)c(O)c(O)c2)oc2cc(O)cc(O)c12 | inconclusive: 31.6 µM [cytotoxic, partial curve, poor fit] | – |
| CC1(C)CCC(C)(C)c2cc(C3(c4ccc(C(=O)O)cc4)OCCO3)ccc21 | inconclusive: 35.5 µM [cytotoxic, partial curve] | – |
| O=C(Nc1ccc(S(=O)(=O)Nc2nccs2)cc1)C(c1ccccc1)c1ccccc1 | – | inactive: -27.2% |
| Cc1cc(-c2ccc(N=Nc3c(S(=O)(=O)O)cc4cc(S(=O)(=O)O)cc(N)c4c3O)c(C)c2)ccc1N=Nc1c(S(=O)(=O)O)cc2cc(S(=O)(=O)O)cc(N)c2c1O | – | inactive: -4.8% |
| CC(C)C1=CCC(C)(O)C(OC2OC(CO)C(O)C(O)C2O)C1 (configuration not stated) | – | inactive: -8.05% [at 24.2 µM] |
| O=C(O)c1ccccc1-c1c2cc(I)c(=O)c(I)c-2oc2c(I)c(O)c(I)cc12 | – | inactive: -8.64% |
| O=C(OC1Cc2c(O)cc(O)cc2OC1c1cc(O)c(=O)c2c(O)c(O)cc(C3Oc4cc(O)cc(O)c4CC3OC(=O)c3cc(O)c(O)c(O)c3)c2c1)c1cc(O)c(O)c(O)c1 (configuration not stated) | inconclusive: 14.1 µM [cytotoxic, full curve] | – |
| Cc1ccc(NC(=O)c2ccc3c(O)c(S(=O)(=O)c4ccc(Cl)cc4)c(=O)[nH]c3c2)cc1 | – | inactive: -7.33% |
